{"sequences": {"note": "Protein sequences, listed by entry. Tags and fused reporters are not part of them.", "UniProt Q96KQ7": "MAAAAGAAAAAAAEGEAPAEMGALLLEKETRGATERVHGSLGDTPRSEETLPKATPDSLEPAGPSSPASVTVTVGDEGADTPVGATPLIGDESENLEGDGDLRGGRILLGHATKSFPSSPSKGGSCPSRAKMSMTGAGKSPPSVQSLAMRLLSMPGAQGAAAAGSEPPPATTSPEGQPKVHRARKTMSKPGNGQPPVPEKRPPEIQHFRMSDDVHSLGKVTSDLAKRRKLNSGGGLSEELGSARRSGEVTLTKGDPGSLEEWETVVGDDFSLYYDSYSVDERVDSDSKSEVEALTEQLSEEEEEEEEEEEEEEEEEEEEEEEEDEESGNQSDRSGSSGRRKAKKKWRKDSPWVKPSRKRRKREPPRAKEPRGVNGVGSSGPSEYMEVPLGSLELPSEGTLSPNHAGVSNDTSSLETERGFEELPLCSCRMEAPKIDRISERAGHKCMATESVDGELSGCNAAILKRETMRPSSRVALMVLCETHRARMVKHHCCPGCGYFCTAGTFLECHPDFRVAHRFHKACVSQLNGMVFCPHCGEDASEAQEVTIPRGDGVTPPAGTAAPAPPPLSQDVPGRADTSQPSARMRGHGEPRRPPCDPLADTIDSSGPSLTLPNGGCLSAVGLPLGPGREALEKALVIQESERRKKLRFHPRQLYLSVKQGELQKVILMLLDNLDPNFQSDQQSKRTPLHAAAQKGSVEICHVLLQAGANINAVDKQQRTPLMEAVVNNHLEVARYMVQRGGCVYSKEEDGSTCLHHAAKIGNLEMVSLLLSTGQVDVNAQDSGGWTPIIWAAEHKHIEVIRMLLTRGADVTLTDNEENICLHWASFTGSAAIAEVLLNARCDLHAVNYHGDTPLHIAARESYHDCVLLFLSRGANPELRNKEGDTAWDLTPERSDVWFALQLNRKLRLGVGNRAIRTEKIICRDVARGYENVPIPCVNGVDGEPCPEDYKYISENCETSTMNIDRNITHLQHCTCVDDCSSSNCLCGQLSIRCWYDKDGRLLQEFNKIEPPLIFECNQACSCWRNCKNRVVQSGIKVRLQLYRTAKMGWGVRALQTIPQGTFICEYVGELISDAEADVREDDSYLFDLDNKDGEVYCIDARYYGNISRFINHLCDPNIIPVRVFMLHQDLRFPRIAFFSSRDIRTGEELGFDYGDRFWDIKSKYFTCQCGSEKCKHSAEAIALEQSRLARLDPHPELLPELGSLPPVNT", "UniProt Q86U44": "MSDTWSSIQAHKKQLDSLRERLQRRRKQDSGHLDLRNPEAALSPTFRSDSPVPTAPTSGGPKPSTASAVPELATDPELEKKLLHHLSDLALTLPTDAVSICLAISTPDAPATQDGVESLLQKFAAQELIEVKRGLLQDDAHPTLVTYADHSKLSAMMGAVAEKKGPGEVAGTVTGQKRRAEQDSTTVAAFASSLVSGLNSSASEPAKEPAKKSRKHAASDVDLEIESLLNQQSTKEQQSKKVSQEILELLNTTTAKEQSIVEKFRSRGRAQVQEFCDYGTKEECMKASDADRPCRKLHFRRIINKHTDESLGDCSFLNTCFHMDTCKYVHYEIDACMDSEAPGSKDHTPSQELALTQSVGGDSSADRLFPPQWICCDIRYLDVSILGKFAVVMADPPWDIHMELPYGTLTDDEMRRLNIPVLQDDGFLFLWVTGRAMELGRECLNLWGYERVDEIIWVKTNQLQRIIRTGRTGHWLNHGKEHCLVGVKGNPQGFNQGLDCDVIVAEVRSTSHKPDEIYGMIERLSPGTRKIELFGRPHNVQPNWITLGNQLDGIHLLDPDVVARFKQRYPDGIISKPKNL"}, "source": "paper doi:10.1101/2024.03.04.583415", "target": "histone methyltransferase G9a (human (endogenous in PBMCs of COVID-19 patients)) (UniProt Q96KQ7)", "assay": "affinity purification with mass spectrometry", "note": "Results are given in words; binding and its absence hold for the method and conditions named. Binding seen in cells or lysates may run through a third protein. Here binding means that the protein was enriched with, or labelled near, the bait; the list need not be complete."}
{"substance": "N6-methyladenosine (m6A) RNA methylase METTL3 (from UniProt Q86U44 1-580) (enzyme)", "values": [{"measurement": "binding", "value": "binds"}]}
